# Type: in vivo, human
# Details: atorvastatin 10 mg with multiple-dose cilofexor
smiles,measurement,value
CC(C)c1c(C(=O)Nc2ccccc2)c(-c2ccccc2)c(-c2ccc(F)cc2)n1CC[C@@H](O)C[C@@H](O)CC(=O)O [atorvastatin],Atorvastatin AUC compared with atorvastatin alone,139%
